Measurements published in publication doi:10.1101/2022.06.16.496509.
No constants are given. Whether binding was seen depends on the method and setting. For some assays here: Binding seen in cells or lysates may run through a third protein. Some binding calls cover weakened binding; strength is not graded here. For some assays here: Tags and fused reporters may be left off the sequences shown.

T1: fatty acid-binding protein 7 (endogenous mouse FABP7) (mouse (endogenous in cerebellum)) (UniProt P51880)
T1 sequence: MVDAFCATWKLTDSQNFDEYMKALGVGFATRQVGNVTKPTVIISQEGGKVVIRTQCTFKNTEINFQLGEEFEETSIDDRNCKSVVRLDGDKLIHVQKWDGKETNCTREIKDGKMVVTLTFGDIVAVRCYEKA

B1: epsin-2 (protein, UniProt Q8CHU3 1-595)
chain: MTTSSIRRQMKNIVNNYSEAEIKVREATSNDPWGPSSSLMTEIADLTYNVVAFSEIMSMVWKRLNDHGKNWRHVYKALTLLDYLIKTGSERVAQQCRENIFAIQTLKDFQYIDRDGKDQGINVREKSKQLVALLKDEERLKVERVQALKTKERMAQVATGVGSNQITFGRGSSQPNLSTSYSEQEYGKAGGSPASYHGSTSPRVSSELEQARPQTSGEEELQLQLALAMSREVAEQSSESVQTARGSKEERLRRGDDLRLQMALEESRRDTVKVPKKKEAKACCKPGSHSQQTTLLDLMDALPSSGPVTQKTEPWSAGASANQTNPWGGTVAPSNITDPWPSFGTKPAASVDPWGVPTTASTQSVPKNSDPWAASQQPASNAGKTTDAWGAAKPSSASGSFELFSNFNGTVKDDFSEFDNLRTSKKPAESGASVPPQDSRTTSPDLFESQSLTSASSKPSSARKTPESFLGPNAALVNLDSLVTKPAPPAQSLNPFLAPGAAAPAPVNPFQVNQPQPLTLNQLRGSPVLGSSASFGSGPGVETVAPMTSVAPHSSVGASGSSLTPLGPTAMNMVGSVGIPPSAAQSTGTTNPFLL
B2: His-hFABP7 (human fatty acid-binding protein 7 with an N-terminal 6X His-tag), O15540 1-132 (protein)
chain: MVEAFCATWKLTNSQNFDEYMKALGVGFATRQVGNVTKPTVIISQEGDKVVIRTLSTFKNTEISFQLGEEFDETTADDRNCKSVVSLDGDKLVHIQKWDGKETNFVREIKDGKMVMTLTFGDVVAVRHYEKA

Key:
[1] = biological target: T1, fatty acid-binding protein 7 (endogenous mouse FABP7) (mouse (endogenous in cerebellum)); assay: co-IP
[2] = biological target: His-hFABP7 (human fatty acid-binding protein 7 with an N-terminal 6X His-tag) (human), O15540; settings: remark: other sources report otherwise

| Binder | binding [1] | binding [2] |
| --- | --- | --- |
| B1 | binds | – |
| B2 | – | no binding (tested: 0.2 mg / ml) |
